Laboratory results published in the supplement of paper PMC6078165.
The reference is the same well before dosing, and untreated signal decays as well.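 Labels refer to human fibroblasts, largely primary: uterine (C12385, HUF), lung (H6013), bone (Hs27A), adrenal (HADF), skin (WS1), plus mammary HMF and breast cancer-associated Hs343T. Cancer lines are basal-like or mesenchymal-like triple-negative breast cancer. The paper counts as hits responses shifting over 3x the replicate standard deviation. The tissue of the other fibroblasts is not given here.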

Test system: MDAMB468
Assay: relative JC-1 red fluorescence (viability) vs pre-drug, coculture with fibroblast (fraction); higher = more viable cancer cells
Experimental: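 JC-1 labelled TNBC cells cocultured 1:1 (1,500 cells each) with CellTrace Violet stained primary or stromal fibroblasts in 384-well plates in FluoroBrite medium, treated with one of 42 anticancer drugs at 0.1, 1, 10 or 100 uM. JC-1 red fluorescence (mitochondrial integrity in cancer cells only) was read by plate reader every 8 h for 72 h. Values are normalised to each well's pre-drug value. The stock of one drug was tenfold lower, so its dose labels may be too high.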

Nc1ncn([C@@H]2O[C@H](CO)[C@@H](O)[C@H]2O)c(=O)n1 [Azacitidine]
relative JC-1 red fluorescence
Conditions	8 h	16 h	24 h	32 h	40 h	48 h	56 h	64 h	72 h
0.1 µM, coculture fibroblast: C12385	0.8463	0.862	0.872	0.859	0.837	0.884	0.872	0.887	0.909
0.1 µM, coculture fibroblast: H6013	0.876	0.883	0.8503	0.831	0.835	0.8583	0.854	0.8518	0.8086
0.1 µM, coculture fibroblast: H6019	0.859	0.867	0.855	0.835	0.818	0.842	0.801	0.789	0.772
0.1 µM, coculture fibroblast: H6076	0.9199	0.956	0.916	0.927	0.872	0.87	0.8425	0.832	0.8657
0.1 µM, coculture fibroblast: H6231	0.785	0.873	0.817	0.828	0.757	0.743	0.7	0.689	0.694
0.1 µM, coculture fibroblast: HADF	0.8834	0.877	0.832	0.828	0.808	0.816	0.787	0.798	0.7501
0.1 µM, coculture fibroblast: HCFa	0.8924	0.88	0.841	0.824	0.786	0.792	0.754	0.739	0.689
0.1 µM, coculture fibroblast: HCPF	0.8568	0.9291	0.895	0.8956	0.842	0.827	0.779	0.776	0.778
0.1 µM, coculture fibroblast: HHSteC	0.8968	0.875	0.844	0.81	0.788	0.801	0.758	0.7445	0.7001
0.1 µM, coculture fibroblast: HMF	0.851	0.943	0.891	0.8855	0.80315	0.7942	0.76	0.746	0.747
0.1 µM, coculture fibroblast: HPFa	0.872	0.8592	0.827	0.762	0.74	0.749	0.698	0.684	0.606
0.1 µM, coculture fibroblast: HUF	0.8835	0.852	0.834	0.781	0.752	0.748	0.704	0.704	0.699
0.1 µM, coculture fibroblast: Hs5	0.9826	0.96155	0.954	0.936	0.885	0.862	0.828	0.804	0.832
0.1 µM, coculture fibroblast: Hs27A	0.857	0.918	0.874	0.876	0.849	0.86	0.843	0.844	0.786
0.1 µM, coculture fibroblast: Hs343T	0.8822	0.9258	0.8731	0.863	0.786	0.774	0.731	0.716	0.717
0.1 µM, coculture fibroblast: WS1	0.87	0.855	0.843	0.82	0.808	0.821	0.82	0.833	0.849
1 µM, coculture fibroblast: C12385	0.881	0.7802	0.763	0.697	0.66	0.648	0.609	0.587	0.581
1 µM, coculture fibroblast: H6013	0.872	0.834	0.792	0.767	0.755	0.764	0.737	0.728	0.676
1 µM, coculture fibroblast: H6019	0.8185	0.816	0.786	0.734	0.702	0.69	0.633	0.609	0.586
1 µM, coculture fibroblast: H6076	0.892	0.871	0.818	0.826	0.752	0.745	0.717	0.699	0.759
1 µM, coculture fibroblast: H6231	0.856	0.943	0.834	0.831	0.773	0.754	0.708	0.687	0.678
1 µM, coculture fibroblast: HADF	0.8768	0.80089	0.7331	0.725	0.6587	0.6552	0.60198	0.5765	0.527
1 µM, coculture fibroblast: HCFa	0.855	0.8	0.721	0.681	0.609	0.585	0.532	0.496	0.4419
1 µM, coculture fibroblast: HCPF	0.8794	0.87	0.8108	0.81	0.724	0.708	0.667	0.673	0.671
1 µM, coculture fibroblast: HHSteC	0.904	0.8659	0.811	0.768	0.738	0.743	0.666	0.637	0.572
1 µM, coculture fibroblast: HMF	0.8304	0.913	0.837	0.82	0.7512	0.73	0.6756	0.66	0.655
1 µM, coculture fibroblast: HPFa	0.919	0.841	0.792	0.737	0.71	0.695	0.633	0.59682	0.5119
1 µM, coculture fibroblast: HUF	0.917	0.805	0.742	0.683	0.637	0.605	0.552	0.532	0.515
1 µM, coculture fibroblast: Hs5	0.907	0.9074	0.8446	0.8068	0.735	0.707	0.679	0.648	0.692
1 µM, coculture fibroblast: Hs27A	0.8488	0.7644	0.702	0.695	0.638	0.619	0.576	0.544	0.496
1 µM, coculture fibroblast: Hs343T	0.848	0.863	0.848	0.86	0.771	0.761	0.716	0.721	0.735
1 µM, coculture fibroblast: WS1	0.836	0.76	0.735	0.697	0.669	0.654	0.633	0.613	0.612
10 µM, coculture fibroblast: C12385	0.8303	0.758	0.679	0.609	0.569	0.561	0.52	0.483	0.457
10 µM, coculture fibroblast: H6013	0.837	0.808	0.7395	0.686	0.6571	0.663	0.637	0.624	0.581
10 µM, coculture fibroblast: H6019	0.836	0.841	0.847	0.86	0.869	0.888	0.859	0.864	0.861
10 µM, coculture fibroblast: H6076	0.867	0.849	0.822	0.845	0.791	0.798	0.787	0.805	0.855
10 µM, coculture fibroblast: H6231	0.841	0.949	0.873	0.85	0.804	0.776	0.704	0.662	0.644
10 µM, coculture fibroblast: HADF	0.8436	0.7733	0.692	0.6674	0.61	0.595	0.549	0.535	0.479
10 µM, coculture fibroblast: HCFa	0.8495	0.7972	0.717	0.678	0.614	0.61	0.564	0.529	0.482
10 µM, coculture fibroblast: HCPF	0.862	0.924	0.833	0.838	0.7788	0.75	0.693	0.661	0.649
10 µM, coculture fibroblast: HHSteC	0.87	0.829	0.783	0.745	0.705	0.719	0.665	0.646	0.589
10 µM, coculture fibroblast: HMF	0.797	0.915	0.808	0.776	0.708	0.675	0.62	0.599	0.56
10 µM, coculture fibroblast: HPFa	0.89	0.833	0.776	0.709	0.674	0.67	0.62	0.598	0.515
10 µM, coculture fibroblast: HUF	0.87833	0.793	0.736	0.673	0.634	0.615	0.58	0.561	0.538
10 µM, coculture fibroblast: Hs5	0.83	0.915	0.898	0.8388	0.77	0.735	0.687	0.645	0.65
10 µM, coculture fibroblast: Hs27A	0.8459	0.818	0.744	0.741	0.692	0.677	0.63	0.607	0.544
10 µM, coculture fibroblast: Hs343T	0.857	0.9219	0.8445	0.83	0.751	0.716	0.671	–	0.631
10 µM, coculture fibroblast: WS1	0.809	0.743	0.682	0.617	0.578	0.553	0.521	0.495	0.478
100 µM, coculture fibroblast: C12385	0.8605	0.755	0.721	0.6496	0.614	0.603	0.559	0.543	0.521
100 µM, coculture fibroblast: H6013	0.743	0.678	0.626	0.5719	0.55	0.55	0.518	0.507	0.453
100 µM, coculture fibroblast: H6019	0.758	0.6938	0.648	0.584	0.559	0.565	0.553	0.5759	0.5946
100 µM, coculture fibroblast: H6076	0.83175	0.747	0.651	0.65	0.5696	0.564	0.54	0.528	0.599
100 µM, coculture fibroblast: H6231	0.884	0.896	0.796	0.811	0.745	0.752	0.716	0.7	0.708
100 µM, coculture fibroblast: HADF	0.822	0.729	0.681	0.641	0.594	0.574	0.523	0.512	0.453
100 µM, coculture fibroblast: HCFa	0.732	0.711	0.6577	0.63308	0.596	0.59	0.546	0.514	0.472
100 µM, coculture fibroblast: HCPF	0.913	0.853	0.93	0.923	0.84	0.805	0.746	0.725	0.707
100 µM, coculture fibroblast: HHSteC	0.813	0.767	0.71	0.645	0.625	0.636	0.578	0.556	0.501
100 µM, coculture fibroblast: HMF	0.908	0.954	0.964	0.948	0.85	0.837	0.796	0.778	0.773
100 µM, coculture fibroblast: HPFa	0.845	0.759	0.735	0.663	0.649	0.646	0.584	0.575	0.505
100 µM, coculture fibroblast: HUF	0.912	0.773	0.695	0.625	0.575	0.558	0.51	0.5	0.488
100 µM, coculture fibroblast: Hs5	0.864	0.9962	0.834	0.801	0.9514	0.932	0.923	0.905	0.856
100 µM, coculture fibroblast: Hs27A	0.785	0.686	0.654	0.633	0.597	0.593	0.56	0.539	0.467
100 µM, coculture fibroblast: Hs343T	0.85167	0.88	0.796	0.77	0.679	0.661	0.624	0.612	0.611
100 µM, coculture fibroblast: WS1	0.853	0.744	0.7288	0.667	0.618	0.583	0.534	0.499	0.482
